Measured values from article PMC3897949.
Results are given in words; binding and its absence hold for the method and conditions named. Binding seen in cells or lysates may run through a third protein. Some results given as binding are weak or reduced against the parent protein; the word gives no strength.

Chains of the proteins cited; added tags and fusions are not shown.
UniProt Q92831: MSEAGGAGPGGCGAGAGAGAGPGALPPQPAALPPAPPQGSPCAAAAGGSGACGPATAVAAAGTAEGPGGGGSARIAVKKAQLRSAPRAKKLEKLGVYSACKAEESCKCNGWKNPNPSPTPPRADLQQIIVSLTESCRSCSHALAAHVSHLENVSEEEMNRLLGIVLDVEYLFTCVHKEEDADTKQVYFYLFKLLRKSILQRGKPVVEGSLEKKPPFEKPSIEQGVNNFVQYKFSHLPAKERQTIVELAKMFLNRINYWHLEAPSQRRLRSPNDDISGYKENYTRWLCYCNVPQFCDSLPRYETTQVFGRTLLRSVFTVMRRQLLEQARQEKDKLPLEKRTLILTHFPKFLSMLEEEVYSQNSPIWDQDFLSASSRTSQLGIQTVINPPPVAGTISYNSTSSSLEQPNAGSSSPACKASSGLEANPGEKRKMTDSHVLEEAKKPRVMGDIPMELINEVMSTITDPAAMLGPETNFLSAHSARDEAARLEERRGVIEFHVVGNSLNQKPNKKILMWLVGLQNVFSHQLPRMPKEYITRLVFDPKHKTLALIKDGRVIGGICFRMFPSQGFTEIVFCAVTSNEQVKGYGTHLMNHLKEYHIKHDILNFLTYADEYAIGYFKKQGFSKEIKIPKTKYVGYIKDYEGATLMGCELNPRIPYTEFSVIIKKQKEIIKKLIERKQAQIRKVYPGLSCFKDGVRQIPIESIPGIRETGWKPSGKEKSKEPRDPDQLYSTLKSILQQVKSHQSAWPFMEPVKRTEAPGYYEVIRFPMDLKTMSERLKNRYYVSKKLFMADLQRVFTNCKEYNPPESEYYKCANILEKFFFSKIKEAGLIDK

Target: Flag-tagged full-length human PCAF (human) (UniProt Q92831)
Assay: co-IP; Flag-PCAF and HA-PCAF co-transfected in 293T cells; lysate on anti-Flag M2 affinity gel for 4 h; lysis buffer with 150 mM NaCl and 1% Triton X-100; western blot with anti-HA

“HA-tagged full-length PCAF (from UniProt Q92831 1-832)” was tested, and the binding was “binds”.
